Reference: patent US10525115B2 (Immatics Biotechnologies GmbH, priority 2014, dated 2020)

What was measured:
Design in all cases: species or system human
[1] = test system: BMNC of healthy donors; assay: HLA class I ligandome analysis (LC-MS/MS) of healthy donor BMNC; conditions: HLA class I ligandome, 5 BMNC samples; second figure of the cell
[2] = test system: cancer tissues in comparison to non-cancerous tissues and organs; assay: Presentation profile / over-presentation by label-free LC-MS (XPRESIDENT), tumor versus normal tissues, other proliferative diseases; conditions: other proliferative diseases / organs (other than AML) that over- or exclusively present the peptide; Table 5
[3] = test system: PBMC of healthy donors; assay: HLA class I ligandome analysis (LC-MS/MS) of healthy donor PBMC; conditions: HLA class I ligandome, 30 PBMC samples; first figure of the cell
[4] = test system: primary AML samples; assay: HLA class I ligandome analysis (W6/32 immunoaffinity purification, LC-MS/MS) of primary AML samples; conditions: for Number of positive AMLs: HLA class I ligandome, 15 AML samples; for AML-exclusivity with regard to HLA presentation: versus PBMC and BMNC of healthy donors

Row | Substance | Number of positive healthy donors (BMNC) [1] | Proliferative disease and location thereof [2] | Number of positive healthy donors (PBMC) [3] | Number of positive AMLs [4] | AML-exclusivity with regard to HLA presentation [4]
1 | 371 (ESIDQYIER; listed as Homo sapiens) [compound 371] | 1/1 | colon or rectum, rectum, adenocarcinoma | 1/1 | 2 | –
2 | 372 (FEEHNSMNEL; listed as Homo sapiens) [compound 372] | 0 | colon or rectum, rectum, adenocarcinoma | 1 | 1 | –
3 | 373 (SVASTPISQR; listed as Homo sapiens) [compound 373] | 1 | colon or rectum, rectum, adenocarcinoma | 0 | 1 | –
4 | 374 (VASTPISQR; listed as Homo sapiens) [compound 374] | 1 | colon or rectum, rectum, adenocarcinoma | 0 | 0 | –
5 | 375 (AEIVGGHEA; listed as Homo sapiens) [compound 375] | 2/2 | spleen, extramedullary hematopoiesis | 2/2 | 1 | –
6 | 376 (RPPSPALASV; listed as Homo sapiens) [compound 376] | 1 | spleen, extramedullary hematopoiesis | 0 | 0 | –
7 | 377 (SVAQVFLNNY; listed as Homo sapiens) [compound 377] | 1 | spleen, extramedullary hematopoiesis | 0 | 0 | –
8 | 378 (TQEPTQQHF; listed as Homo sapiens) [compound 378] | 1 | spleen, extramedullary hematopoiesis | 0 | 1 | –
9 | 379 (KDITMKNLV; listed as Homo sapiens) [compound 379] | 0 | kidney, clear cell renal cell carcinoma, colon, non- Hodgkin's lymphoma | 1 | 0 | –
10 | 380 (MAEKAKQIY; listed as Homo sapiens) [compound 380] | 0/0 | kidney, clear cell renal cell carcinoma, colon, non- Hodgkin's lymphoma | 0/0 | 2 | –
11 | 381 (KLDNQVSKV; listed as Homo sapiens) [compound 381] | 0 | colon or rectum, prostate, benign nodular; hyperplasia | 6 | 0 | –
12 | 382 (SENVKLFSA; listed as Homo sapiens) [compound 382] | 0 | colon or rectum, prostate, benign nodular; hyperplasia | 1 | 0 | –
13 | 383 (VQKLQNII; listed as Homo sapiens) [compound 383] | 0 | colon or rectum, prostate, benign nodular; hyperplasia | 1 | 0 | –
14 | 384 (AFTVHFSGQF; listed as Homo sapiens) [compound 384] | 0/0 | omentum, adenocarcinoma | 0/0 | 2 | –
15 | 385 (GVFRGIQDV; listed as Homo sapiens) [compound 385] | 0/0 | omentum, adenocarcinoma | 0/0 | 1 | –
16 | 386 (QRNMTKLQL; listed as Homo sapiens) [compound 386] | 0 | omentum, adenocarcinoma | 1 | 0 | –
17 | 388 (EAAAEAKAR; listed as Homo sapiens) [compound 388] | 0 | lymph node, carcinoma of breast | 1 | 1 | –
18 | 389 (IIKEYTDVY; listed as Homo sapiens) [compound 389] | 0 | lymph node, carcinoma of breast | 1 | 0 | –
19 | 390 (KEIDKNDHL; listed as Homo sapiens) [compound 390] | 0 | lymph node, carcinoma of breast | 1 | 0 | –
20 | 391 (KVSKASGVSK; listed as Homo sapiens) [compound 391] | 0 | lymph node, carcinoma of breast | 2 | 1 | –
21 | 392 (MPATETKKV; listed as Homo sapiens) [compound 392] | 0 | lymph node, carcinoma of breast | 1 | 0 | –
22 | 393 (NADPQAVTM; listed as Homo sapiens) [compound 393] | 0 | lymph node, carcinoma of breast | 5 | 0 | –
23 | 394 (RSDMLKDII; listed as Homo sapiens) [compound 394] | 0/0 | lymph node, carcinoma of breast | 0/0 | 1 | –
24 | 395 (SESGAGLTRF; listed as Homo sapiens) [compound 395] | 0/0 | lymph node, carcinoma of breast | 0/0 | 1 | –
25 | 396 (SMMQTLLTV; listed as Homo sapiens) [compound 396] | 0 | lymph node, carcinoma of breast | 1 | 0 | –
26 | 397 (TEVSKTPEA; listed as Homo sapiens) [compound 397] | 2 | lymph node, carcinoma of breast | 4 | 3 | –
27 | 398 (VEVPETPKA; listed as Homo sapiens) [compound 398] | 1 | lymph node, carcinoma of breast | 2 | 1 | –
28 | 400 (REVEIQSHL; listed as Homo sapiens) [compound 400] | 0/0 | stomach, adenocarcinoma, stomach, adenocarcinoma | 0/0 | 1 | AML-exclusivity
29 | 401 (EPPAVLLL; listed as Homo sapiens) [compound 401] | 0/0 | lung, non-small cell lung carcinoma, omentum, adenocarcinoma | 0/0 | 1 | AML-exclusivity
